Some results were stated once for a whole list of compounds, not compound by compound.
Key:
α1/β3/ε GABAA receptors = molecular target: T1, α1/β3/ε GABAA receptors (UniProt P28472+P62813+P78334, S102A); assay type: binding, rat α1, human β3, human ε; settings: α1/β3/ε subunits
T1 construct: The ε-subunit open reading frame was amplified from a hippocampal cDNA library; expressed in transfected cells; host or cells: HEK-293 (transient, calcium phosphate); membranes prepared from the transfected cells

Sequences of proteins named here, by UniProt entry; tags and fusion partners are left off. A change or cut given only in a name is not applied to a line headed by its entry. Residues count along the entry.
UniProt P28472, 26-473: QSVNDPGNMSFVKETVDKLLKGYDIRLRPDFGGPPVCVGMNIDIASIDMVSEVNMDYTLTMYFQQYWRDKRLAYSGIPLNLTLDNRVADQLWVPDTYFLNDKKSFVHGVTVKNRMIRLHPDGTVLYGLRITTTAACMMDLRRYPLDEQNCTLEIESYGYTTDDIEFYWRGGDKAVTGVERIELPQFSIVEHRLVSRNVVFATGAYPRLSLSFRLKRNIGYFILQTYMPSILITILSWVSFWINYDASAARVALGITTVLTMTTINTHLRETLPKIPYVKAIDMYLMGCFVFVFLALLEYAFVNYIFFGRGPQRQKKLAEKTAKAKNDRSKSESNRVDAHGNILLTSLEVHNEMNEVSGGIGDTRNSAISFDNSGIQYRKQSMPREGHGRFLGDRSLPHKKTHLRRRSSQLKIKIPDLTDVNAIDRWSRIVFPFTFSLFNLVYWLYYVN
UniProt P62813, 28-455: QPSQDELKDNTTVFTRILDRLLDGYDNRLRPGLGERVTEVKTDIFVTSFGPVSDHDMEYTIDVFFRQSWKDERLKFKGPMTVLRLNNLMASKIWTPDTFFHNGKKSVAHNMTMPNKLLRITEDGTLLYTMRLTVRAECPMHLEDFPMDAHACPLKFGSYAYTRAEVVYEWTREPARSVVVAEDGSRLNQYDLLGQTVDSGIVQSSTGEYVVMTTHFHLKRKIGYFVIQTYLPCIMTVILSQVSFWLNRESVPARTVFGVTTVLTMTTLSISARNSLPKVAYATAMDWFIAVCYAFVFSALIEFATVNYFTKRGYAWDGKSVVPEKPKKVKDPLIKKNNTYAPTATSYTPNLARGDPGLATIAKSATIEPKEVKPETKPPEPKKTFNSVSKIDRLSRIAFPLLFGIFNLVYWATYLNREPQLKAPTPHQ

[1] = system: α/β/ε GABAA receptors (α2/β1/ε or α1/β3/ε); settings: 1 mM, N=4–6

| Compound | Maximal stimulation of [3H]muscimol binding to cell membranes (α1/β3/ε GABAA receptors) | Picrotoxin-sensitive currents evoked in the absence of GABA (direct activation) [1] |
| --- | --- | --- |
| 5α-pregnan-3α-ol-20-one [pregnanolone] | below 15% |  |
| CCCC(C)C1(CC)C(=O)NC(=O)NC1=O (centres unmarked) [pentobarbital] |  | 0.2–2.1 nA |
